The target in the experiment is integrin α5β1 (human (endogenous in U87)). Kind of experiment: co-IP; ProFound Mammalian Co-Immunoprecipitation Kit (Pierce); U87 cells lysed with M-per reagent; lysates incubated with mouse anti-human βig-h3 mAb, or anti-α5 mAb (P1D6) and anti-β1 mAb (3S3); bound proteins collected on coupling gel, eluted and blotted for integrin α5β1 or βig-h3; both directions.

Results are given in words; binding and its absence hold for the method and conditions named. In cells and extracts the contact can be indirect. Binding calls can cover weak binding; strength is not graded here.

B1: Transforming growth factor (TGF)-β-inducible gene-h3 (βig-h3) (protein, UniProt Q15582 24-683)
chain: GPAKSPYQLVLQHSRLRGRQHGPNVCAVQKVIGTNRKYFTNCKQWYQRKICGKSTVISYECCPGYEKVPGEKGCPAALPLSNLYETLGVVGSTTTQLYTDRTEKLRPEMEGPGSFTIFAPSNEAWASLPAEVLDSLVSNVNIELLNALRYHMVGRRVLTDELKHGMTLTSMYQNSNIQIHHYPNGIVTVNCARLLKADHHATNGVVHLIDKVISTITNNIQQIIEIEDTFETLRAAVAASGLNTMLEGNGQYTLLAPTNEAFEKIPSETLNRILGDPEALRDLLNNHILKSAMCAEAIVAGLSVETLEGTTLEVGCSGDMLTINGKAIISNKDILATNGVIHYIDELLIPDSAKTLFELAAESDVSTAIDLFRQAGLGNHLSGSERLTLLAPLNSVFKDGTPPIDAHTRNLLRNHIIKDQLASKYLYHGQTLETLGGKKLRVFVYRNSLCIENSCIAAHDKRGRYGTLFTMDRVLTPPMGTVMDVLKGDNRFSMLVAAIQSAGLTETLNREGVYTVFAPTNEAFRALPPRERSRLLGDAKELANILKYHIGDEILVSGGIGALVRLKSLQGDKLEVSLKNNVVSVNKEPVAEPDIMATNGVVHVITNVLQPPANRPQERGDELADSALEIFKQASAFSRASQRSVRLAPVYQKLLERMKH
On to B1, for which the binding result was “binds”.

For the origin of these results see publication PMC3357424.
